# ± gives the standard deviation. The list shows a part of the results. Many entries were measured with a wide error.
# Tested on: EfPiwi piRISC loaded with L1MC piRNA (26 nt)
# Experiment: pre-steady-state target cleavage rate (min^-1); guide: L1MC piRNA 5'p-UAACUAAAUACUAUGCAAGCUGUAGG; MIWI and MILI are mouse PIWI proteins and EfPiwi is from a freshwater sponge; tags in brackets are library labels; higher = faster piRNA-guided slicing of the target
# Conditions: auxiliary factor: 500 nM Ephydatia muelleri Gtsf1
# Protocol: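 Cleave-'n-Seq: a library of target RNAs (target site in constant flanks) at […] was incubated with 1 nM active freshwater sponge Ephydatia fluviatilis Piwi piRISC (synthetic 5'-monophosphorylated piRNA guide) with or without 500 nM EmGtsf1 at 33 °C for 1 min to 16 h. Uncleaved targets were sequenced and the pooled three trials fitted to a burst-and-steady-state model to give the pre-steady-state cleavage rate (min^-1). Sequence is the target site only. Fits with R² ≤ 0 are excluded.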
row,Sequence,pre-steady-state target cleavage rate
1,UCCUCCUACAGCUAGCAUAGUAUUUACUUA,0.00296 ± 0.0027
2,UCCUGGAUGUCGAUGCAUAGUAUUUAUUA,0.000454 ± 0.0093
3,UCCUGGAUGUGCUUGCUUAGUAAUUAGUUA,0.00256 ± 0.0041
4,UCCUGGAUGUCGAAGCAUAGAUAUUUAGUUA,0.000269 ± 0.011
5,UCCUGGAUCAGCUUGCAUAUUAUUUAGUUA,0.0367 ± 0.011
6,UCCUGGAUGUCGAAGCAUAGUAUUUAGUA,0.000966 ± 0.0072
7,UCCUGGAUGUCCUUGCAUAGUAUUUUGUUA,0.00191 ± 0.0029
8,UCCUGGAUGUCGUUGCAUAGUAAAUAGUUA,0.000353 ± 0.0071
9,UCCUGGAUGUCGUUGCAUACUAUUAAGUUA,0.000167 ± 0.017
10,UCCUGGAACAGCUUGCAUGAGUAUUUAGUUA,0.00082 ± 0.0035
11,UCCUCCUAGAGCUAGCAUAGUAUUUAGUUA,0.0136 ± 0.0043
12,UCCUGGAUGUCCAUGGAUAGUAUUUAGUUA,0.000389 ± 0.0074
13,UCCUGGAACAGCAACCAUAGUAUUUAGAAA,0.000483 ± 0.01
14,UCCUGGAUGUCGAACGUAUCUGUUUAGUUA,0.000195 ± 0.027
15,UCCUGGAACAGCUUCCAUAGUAUUUAGAUA,0.00228 ± 0.0017
16,UCCUGGAUGUGCUUGCUUAGUAUUUAGUAA,0.00141 ± 0.0054
17,UCCUGGAUGUCCUUGCAUAGUAAAAAGUUA,0.00028 ± 0.011
18,UCCUGGAACAGCUUGCAUAGUAUUUAGUUU [g2:g23:cont:t1U],0.0156 ± 0.0055
19,UCCUGGAUGUCGAUGGAUAGUAUUUAGUUA,0.000418 ± 0.011
20,UCCUGCUACAGGUUGCAUUGUAUUUAGUUA,0.00597 ± 0.0023
21,UCCUGGAUGUCGAUGCAUACAUAAAUCAAA [g12:g17:cont:t1A],0.000183 ± 0.015
22,UCCUGCUACAGGAAGCAUAGUAUUUAGUAA,0.00302 ± 0.0027

# Same assay, conditions: auxiliary factor: none (no Gtsf1)
row,Sequence,pre-steady-state target cleavage rate
1,UCCUCCUACAGCUAGCAUAGUAUUUACUUA,0.000439 ± 0.011
2,UCCUGGAUGUCGAUGCAUAGUAUUUAUUA,0.000269 ± 0.026
3,UCCUGGAUGUGCUUGCUUAGUAAUUAGUUA,0.000358 ± 0.036
4,UCCUGGAUGUCGAAGCAUAGAUAUUUAGUUA,< 0.0001
5,UCCUGGAUCAGCUUGCAUAUUAUUUAGUUA,0.00536 ± 0.0048
6,UCCUGGAUGUCCUUGCAUAGUAUUUUGUUA,0.000683 ± 0.011
7,UCCUGGAUGUCGUUGCAUAGUAAAUAGUUA,0.000229 ± 0.038
8,UCCUGGAACAAGCUUGCAUAGUAUUUAGUUA,0.000651 ± 0.014
9,UCCUGGAUGUCGUUGCAUACUAUUAAGUUA,0.000254 ± 0.029
10,UCCUGGAACAGCUUGCAUGAGUAUUUAGUUA,0.000508 ± 0.013
11,UCCUGGAUGUCCAUGGAUAGUAUUUAGUUA,0.0004 ± 0.015
12,UCCUGGAACAGCAACCAUAGUAUUUAGAAA,0.000539 ± 0.014
13,UCCUGGAUGUCGAAGCAUAGUAUUUAGUGA,< 0.0001
14,UCCUGGAUGUCCUUGCAUAGUAAAAAGUUA,0.000375 ± 0.02
15,UCCUGGAUGUCGAUGGAUAGUAUUUAGUUA,0.000593 ± 0.013
16,UCCUGCUACAGGUUGCAUUGUAUUUAGUUA,0.000507 ± 0.016
17,UCCUGGAUGUCGAUGCAUACAUAAAUCAAA [g12:g17:cont:t1A],0.000373 ± 0.019
18,UCCUGCUACAGGAAGCAUAGUAUUUAGUAA,0.000137 ± 0.028

# Reference: the supplement of paper PMC10338343
